Data on 11 molecules can be found in publication PMC4604347, “Local regulation of the Srs2 helicase by the SUMO-like domain protein Esc2 promotes recombination at sites of stalled replication”.

By UniProt entry, the sequences of proteins in these tests, tags left out. Where a name states a change or a piece, a line headed by the entry shows the natural chain unless it says otherwise.
UniProt P12954: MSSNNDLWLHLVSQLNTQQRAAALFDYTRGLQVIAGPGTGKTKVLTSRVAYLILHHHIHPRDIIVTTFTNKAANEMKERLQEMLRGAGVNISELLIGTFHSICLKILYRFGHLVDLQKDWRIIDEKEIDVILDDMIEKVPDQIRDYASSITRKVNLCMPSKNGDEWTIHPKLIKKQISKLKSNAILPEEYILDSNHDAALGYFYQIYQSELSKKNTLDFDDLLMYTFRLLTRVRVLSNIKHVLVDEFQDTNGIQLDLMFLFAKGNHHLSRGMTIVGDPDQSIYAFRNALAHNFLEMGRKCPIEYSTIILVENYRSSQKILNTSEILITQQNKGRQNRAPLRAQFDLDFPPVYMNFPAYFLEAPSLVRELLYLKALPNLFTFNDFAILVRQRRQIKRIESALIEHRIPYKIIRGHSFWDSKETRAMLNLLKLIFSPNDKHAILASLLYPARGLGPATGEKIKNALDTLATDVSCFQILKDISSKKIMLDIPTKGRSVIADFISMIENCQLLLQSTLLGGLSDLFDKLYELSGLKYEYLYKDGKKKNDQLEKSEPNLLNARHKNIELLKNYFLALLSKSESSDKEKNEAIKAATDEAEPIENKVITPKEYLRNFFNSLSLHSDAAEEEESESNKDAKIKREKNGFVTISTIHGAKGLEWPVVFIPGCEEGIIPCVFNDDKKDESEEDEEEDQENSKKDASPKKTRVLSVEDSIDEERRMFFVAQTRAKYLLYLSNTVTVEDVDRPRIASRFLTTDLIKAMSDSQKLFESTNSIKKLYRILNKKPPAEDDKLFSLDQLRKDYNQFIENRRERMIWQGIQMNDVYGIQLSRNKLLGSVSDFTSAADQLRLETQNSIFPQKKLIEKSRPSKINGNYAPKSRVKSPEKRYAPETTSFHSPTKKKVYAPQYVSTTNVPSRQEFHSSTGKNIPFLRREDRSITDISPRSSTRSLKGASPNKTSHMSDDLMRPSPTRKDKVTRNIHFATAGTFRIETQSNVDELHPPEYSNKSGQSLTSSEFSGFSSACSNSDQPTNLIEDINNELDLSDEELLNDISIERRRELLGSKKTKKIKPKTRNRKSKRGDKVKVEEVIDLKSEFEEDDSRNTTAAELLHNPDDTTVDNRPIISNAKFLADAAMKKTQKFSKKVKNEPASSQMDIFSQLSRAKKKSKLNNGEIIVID
UniProt P15873: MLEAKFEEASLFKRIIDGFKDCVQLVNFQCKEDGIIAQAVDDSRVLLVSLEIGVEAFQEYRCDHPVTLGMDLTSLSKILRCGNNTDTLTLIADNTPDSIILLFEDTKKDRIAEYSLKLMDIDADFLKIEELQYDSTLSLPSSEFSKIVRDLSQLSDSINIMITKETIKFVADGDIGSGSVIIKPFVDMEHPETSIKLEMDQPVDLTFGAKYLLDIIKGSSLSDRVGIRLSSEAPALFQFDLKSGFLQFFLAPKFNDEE

Test [1] has as its target T1, GST-Esc2 (S. cerevisiae) (UniProt Q06340).
T1 sequence: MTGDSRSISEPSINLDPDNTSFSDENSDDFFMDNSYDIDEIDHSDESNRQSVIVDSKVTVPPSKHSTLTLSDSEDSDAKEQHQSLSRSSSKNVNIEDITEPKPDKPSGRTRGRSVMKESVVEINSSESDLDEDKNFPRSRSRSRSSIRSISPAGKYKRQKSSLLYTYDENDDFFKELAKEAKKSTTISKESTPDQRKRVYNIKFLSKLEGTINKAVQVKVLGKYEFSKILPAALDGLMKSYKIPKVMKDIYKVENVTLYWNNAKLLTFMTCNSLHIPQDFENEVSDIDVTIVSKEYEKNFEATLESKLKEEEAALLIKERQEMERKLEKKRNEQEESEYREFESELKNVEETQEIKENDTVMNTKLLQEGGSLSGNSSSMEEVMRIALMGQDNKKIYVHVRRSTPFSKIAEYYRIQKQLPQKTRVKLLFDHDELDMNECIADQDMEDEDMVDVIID
As to the kind of experiment: pull-down; in vitro pull-down: 3 μg His-tagged Srs2 mixed with 3 μg GST-Esc2 in the presence of glutathione beads; supernatant and SDS eluate on SDS-PAGE, Coomassie staining; both purified.

Test [2] concerns the target T2, Esc2 (two-hybrid fusion, full-length) (S. cerevisiae) (UniProt Q06340).
T2 sequence: T1 sequence
Nature of the test: two-hybrid; yeast two-hybrid, as in Sollier et al. 2009.

Test [3] has as its target T1, GST-Esc2 (S. cerevisiae). As to the kind of experiment: pull-down; 'in vivo pull-down': purified recombinant GST-Esc2 (wild type or mutants) with total yeast cell lysate, with or without ethidium bromide; complexes on the beads analysed by protein blotting; only the target purified.
Test [4] has as its target T1, GST-Esc2 (S. cerevisiae). The test is described as above. This is another data set of the same source.
Test [5] deals with His-tagged Srs2 (S. cerevisiae) (UniProt P12954). As to the kind of experiment: pull-down; in vitro pull-down of Esc2^Δ154–198 with Srs2 (Supplemental Fig. S5A); beads not told; both purified.
For test [6] the target is unchanged. As to the kind of experiment: pull-down; in vitro pull-down: 3 μg His-tagged Srs2 mixed with 3 μg Esc2 in the presence of Ni-NTA beads; supernatant and SDS eluate on SDS-PAGE, Coomassie staining; both purified.

Results are given in words; binding and its absence hold for the method and conditions named. For some assays here: In cells and extracts the contact can be indirect. Some binding calls cover weakened binding; strength is not graded here. For some assays here: Sequences can lack the tags named with a protein.

“His-tagged Srs2 (from UniProt P12954 1-1174)”: the binding entry in test [1] was “binds”.

As to “PCNA (two-hybrid fusion) (from UniProt P15873 1-258)”, the binding entry in test [2] is “no binding”.

With “Srs2 (two-hybrid fusion) (from UniProt P12954 1-1174)”, in test [2], the binding entry is given as “binds”.

Consider “Srs2 fragment 909–1174 (two-hybrid fusion) (from UniProt P12954 909-1174) (domain or fragment)”, for which the binding result in test [2] was “binds”.

For “Srs2 fragment 1036–1174 (two-hybrid fusion) (from UniProt P12954 1036-1174) (domain or fragment)”, the binding result in test [2] is listed as “binds”.

On to “endogenous PCNA (from UniProt P15873 1-258)”, for which the binding result in test [3] is given as “no binding”.

For the molecule “endogenous Srs2 (from UniProt P12954 1-1174)”, the binding result in test [3] is on record as “binds”.

B1: Slx5 (protein, UniProt P32828 1-619)
chain: MHSDTNGRTKSNNSPSDNNPNETVILIDSDKEEDASIREANLPVRLYPDRRVGRRRDALNRFVRSDSRSRNSQRTHITASSERPDFQANNDDITIIREVGRFFGDDGPIDPSAHYVDLDQEPGSETLETPRTIQVDNTNGYLNDNGNNNESDDGLTIVEERTTRPRVTLNLPGGERLEVTATTTDIPIRRSFEFQEDLGASRRQLLRRSATRARNLFVDRSDENDEDWTDDTHNLPEAIQRARRESRMRMSRRIAERQRRVQQQRVSSDENISTSIRLQSIRERIQSYTPDIRSAFHRAESLHEFRSILQNVAPITLQECEEELMALFTEFRNQLLQNWAIDRVRNTQEEALRLHREALERQERTAGRVFHRGTLRESITNYLNFNGEDGFLSRLWSGPALSDADEERHTQNIIDMIQEREERERDVVMKNLMNKTRAQQEEFEARAASLPEGYSASFDTTPKMKLDITKNGKEETIIVTDDDLAKTLEDIPVCCLCGAELGVGIPDDFTGISQKDRGVSFEGLVSKYKFHCPYQTLARPSMLDRDLSKRTFIASCGHAFCGRCFARIDNAKKKSKMPKKKLAQLKGSAHPDNYGPKLCPADSCKKLIRSRGRLKEVYF
Turning to B1, the binding result in test [4] is “binds”.

B2: Elg1-Flag (protein, UniProt Q12050 1-791)
chain: MKRHVSLSDILTGNKRKVRRQDALQITIDDENDTESGTFDARTAKHDDSSVIFLNHSVVKPIEAVSTNHKSAKEFLMTKRTKEKCDDDDDDLIVISDKSPKSETNCSKIALSQEHEDDISIISTSRIKSSLLNERASKIKNFLKHETTDTFKRLNSISKLNEIEPPLPLHQSIFPVGDKELSDRSVDIPLPFRTIPPLNHNFLPSDYESLKDKNSASCIPVRYQAPVLLGTNIKRNTTLTWPQLFKPVTLKQVLIEPKLKLRIKNWIETSFHTLEKPTLRNRLLNRINPNKQQGSGDELANFIVPDLEEDENLRPDFYRNGEANSSLSEFVPLMILHGNSIGKKTLIQTIMREIAGDDNSYQIYEVNSNMNRSKKDLLDILLDFTTTHYVKDSSKRKSDYGLVLFNDVDVLFKEHDRGYWAMISKLCEFSRRPLVLTCKDLSLVPSELIALASEQNSLFHTKKISTSTVYAFLTKYLKSLEIEVCDDWLRDVVKQNNADIRKCLMHLQFWCVDTEADLISSKNRLPVLTSTLGSSVKDISQLTDLLSINDVIGQATLNRSMVRQEIDSTTMTPEKVNTFQDQNLDDEMKLKFDYVIDYKLHLNDPNRQPLLPFELNIYQHIQEQLEARYSYVREANHRLDNEYLVNRFKKMTESTLNFLASRIPKYDHLQSARRTRNSKKISDILNQFKGIYNDETLNENAEIDLLSATTQQIKAEINPFVFEIAKSDANVKNENKQIFELHSENVSERRYKDLVYQLSQEGVLKNVWFNADPSIVVRKWEHLHSGFSKNK
For B2, the binding entry in test [4] is given as “binds”.

B3: Esc2^Δ154–198 (protein, UniProt Q06340)
chain: MTGDSRSISEPSINLDPDNTSFSDENSDDFFMDNSYDIDEIDHSDESNRQSVIVDSKVTVPPSKHSTLTLSDSEDSDAKEQHQSLSRSSSKNVNIEDITEPKPDKPSGRTRGRSVMKESVVEINSSESDLDEDKNFPRSRSRSRSSIRSISPAVYNIKFLSKLEGTINKAVQVKVLGKYEFSKILPAALDGLMKSYKIPKVMKDIYKVENVTLYWNNAKLLTFMTCNSLHIPQDFENEVSDIDVTIVSKEYEKNFEATLESKLKEEEAALLIKERQEMERKLEKKRNEQEESEYREFESELKNVEETQEIKENDTVMNTKLLQEGGSLSGNSSSMEEVMRIALMGQDNKKIYVHVRRSTPFSKIAEYYRIQKQLPQKTRVKLLFDHDELDMNECIADQDMEDEDMVDVIID
On to B3, for which the binding result in test [5] is “binds”.

B4: Esc2 (purified recombinant Esc2 protein without the GST tag) (protein, UniProt Q06340 1-456)
chain: T1 sequence
Regarding B4, the binding result in test [6] was “binds”.
